According to US7070814B2, “Bioavailability / bioefficacy enhancing activity of Cuminum cyminum and extracts and fractions thereof” (Council of Scientific and Industrial Research, priority 2002, dated 2006):

Test: Bioavailability enhancement: drug, nutraceutical or herbal product given alone or with bioenhancer (BE) to fasted rats, blood (plasma) levels 0-24 hrs by HPLC
Method: • 1. Bioenhancers (BEs) from Cuminum cyminum means either the aqueous, or 50% alcoholic extract or fractions No. 1 to 5. • 2. Piperine as Bioenhancer (BE) from Piper species means the molecule with characteristics as described in Example 2 of this invention. • 3.
• (i) Bioenhancer (BE) from Cuminum cyminum • Extract: 16 mg/kg body weight (Rats) • Fraction No. 1: 02–5 mg/kg body weight (rats) • Fraction No.2: 13-mg/kg body weight (Rats) • Fraction No. 3: 8 mg/kg body weight (Rats) • Fraction No. 4: 5 mg/kg body weight (Rats) • Fraction No. 5: 2.5 to 5 mg/kg body weight (Rats) • (ii) Piperine: 8 mg/kg body weight (Rats) As an example of an experiment in Rat (fasted): • Drug: Rifampicin, 40 mg/kg • BE (Cuminum cyminum): Doses as in Example No. 5 above. • BE (Cuminum cyminum)+Piperine: Doses as in Example No. 5 above.
Experimental procedure: Drug alone/or in combination with BE was administered to rats as per the following design: • Group 1: Control • Group 2: Rifampicin alone • Group 3: BE alone • Group 4: Rifampicin+BE (Cuminum cyminum) • Group 5: Rifampicin+BE (C. cyminum+piperine)
Blood from control/treated animals at predetermined intervals (0–24 hrs) (Total 14 timings). […] The concentration of rifampicin in the samples was determined using HPLC (Model: Shimadzu 1080 BP); PDA detector; Mobile phase: phosphate buffer: acetonitile (40:60); Flow rate 1.0 ml/min. […]

% Enhancement in bioavailability, BE from Cuminum cyminum (drug + BE from Cuminum cyminum (extract 16 mg/kg or fraction, rats) vs drug alone): 47% | % Enhancement in bioavailability, Piperine as BE (drug + piperine (8 mg/kg, rats) vs drug alone): 51%
SMILES: CCn1cc(C(=O)O)c(=O)c2cc(F)c(N3CCN(C)CC3)cc21 [P-floxacin, Pefloxacin]
